Experimental data from patent publication US20140227293A1.
These are yes or no findings as the source states them, for the method shown. For part of these data: Binding seen in cells or lysates may run through a third protein. Some results given as binding are weak or reduced against the parent protein; the word gives no strength. Where a sequence is shown, tags or fusion partners need not be part of it.

T1: SH3 domain of BPAG1 (Bullous pemphigoid antigen-1) on the Panomics SH3 array (UniProt Q03001)
T1 sequence (looked up): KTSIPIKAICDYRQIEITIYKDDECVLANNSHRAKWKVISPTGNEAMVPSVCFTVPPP

T2: SH3 domain of MIA (Melanoma inhibitory activity) on the Panomics SH3 array (UniProt Q16674)
T2 sequence (looked up): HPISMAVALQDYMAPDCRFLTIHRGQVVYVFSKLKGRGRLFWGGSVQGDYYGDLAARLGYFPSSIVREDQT

T3: immunoglobulin containing and proline rich receptor-1 (IGPR-1), human, full length, ectopically expressed in PAE cells (human) (UniProt Q96BF3)
T3 sequence (chain, N-glycosylated (apparent 55 kDa, 31 kDa after PNGase F)): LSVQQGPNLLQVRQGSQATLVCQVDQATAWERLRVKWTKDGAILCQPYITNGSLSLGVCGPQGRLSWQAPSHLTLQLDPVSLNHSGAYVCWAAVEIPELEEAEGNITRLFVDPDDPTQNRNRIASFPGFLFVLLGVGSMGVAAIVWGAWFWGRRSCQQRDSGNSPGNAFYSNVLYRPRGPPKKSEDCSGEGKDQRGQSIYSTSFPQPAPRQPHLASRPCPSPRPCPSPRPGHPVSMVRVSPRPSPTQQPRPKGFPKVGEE


Legend:
[1] = target: T1, SH3 domain of BPAG1 (Bullous pemphigoid antigen-1) on the Panomics SH3 array; experiment: SH3 domain protein array (34 SH3 domains) blotted with GST-IGPR-1 cytoplasmic region, detected with anti-IGPR-1 antibody
[2] = target: SH3 domain of SPIN90/WISH (SH3 Protein Interacting with Nck, 90 kDa) on the Panomics SH3 array (Homo sapiens (Human)) (UniProt Q9NZQ3); experiment: as above
[3] = target: SH3 domain of CACNB2 (calcium channel beta 2) on the Panomics SH3 array (Oryctolagus cuniculus (Rabbit)) (UniProt P54288); experiment: as above
[4] = target: T2, SH3 domain of MIA (Melanoma inhibitory activity) on the Panomics SH3 array; experiment: as above
[5] = target: T3, immunoglobulin containing and proline rich receptor-1 (IGPR-1), human, full length, ectopically expressed in PAE cells (human); experiment: GST-SH3 pull-down from lysates of PAE cells expressing IGPR-1, anti-IGPR-1 immunoblot
[6] = target: T3, immunoglobulin containing and proline rich receptor-1 (IGPR-1), human, full length, ectopically expressed in PAE cells (human); experiment: figure legend (FIG. 6D schematic; FIG. 6E GST-SH3 pull-down)

binding [1]	binding [2]	binding [3]	binding [4]	binding [5]	binding [6]	Binder
binds	binds	binds	binds	–	–	purified GST-IGPR-1 (cytoplasmic region) (protein, not shown: a dimerising Fc or GST) WGRRSCQQRDSGNSPGNAFYSNVLYRPRGPPKKSEDCSGEGKDQRGQSIYSTSFPQPAPRQPHLASRPCPSPRPCPSPRPGHPVSMVRVSPRPSPTQQPRPKGFPKVGEE
–	–	–	–	binds	binds	GST recombinant SH3 domain of BPAG1 (protein, UniProt Q03001 887-944, looked up, not shown: a dimerising Fc or GST) KTSIPIKAICDYRQIEITIYKDDECVLANNSHRAKWKVISPTGNEAMVPSVCFTVPPP
